Data published in PubChem BioAssay AID624297 (National Center for Advancing Translational Sciences (NCATS), 2012).
Hit rate of the full screen: of about 340,000 compounds, about 6,200 (1.8%) were called active. The inconclusive results got no clear call from the source; some entries with a clear call stand among them for comparison. The call rests on the fitted dose curve; in most records, active means well fitted activation curve with a large enough effect; inconclusive means small, poorly fitted or top-dose-only effect; inactive means no such curve, though single readings can be large or run the other way. A potency beside an inconclusive call is a rough fit, not a confirmed value.

Test: A quantitative high throughput screen for small molecules that induce DNA re-replication in SW480 colon adenocarcinoma cells. Further: nearly all actives have a fitted effect of over 55% in size. On re-replication activation: % of control where 0% means no effect.
Details: Hoechst DNA content imaging, 48 h; re-replication activation: at 46.1 µM (top of the series) unless noted
Method in brief: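 Cells (250 per well) received 23 nL compound or DMSO by pin tool and were kept 48 hr at 37 C, 5% CO2. Nuclei were then stained with Hoechst for 40 min and scanned for DNA content.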
Potency means the concentration at half of the fitted maximal effect.

| Compound | Potency | re-replication activation |
| --- | --- | --- |
| COc1ccc(C(=O)c2coc3c2C(=O)C(=O)c2ccccc2-3)cc1 | inconclusive: 13 µM [activator, partial curve, poor fit] |  |
| CN(C)c1ccc(N/C=C/C(=O)c2ccc(F)cc2)cc1 | inconclusive: 23.1 µM [activator, single point] |  |
| COc1ccc(OCC(=O)N/N=C/c2cccc3cccnc23)cc1 | inconclusive: 16.4 µM [activator, single point] |  |
| Cc1ccc(-c2nnc(-c3ccc4ccccc4c3)o2)cc1 | inconclusive: 29.1 µM [activator, single point] |  |
| CCOC(=O)c1cc(-c2ccc(C#N)cc2)nc2c1c(C)nn2CCC#N |  | inactive: -5.71% |
| CC(=O)NCCOc1c(C)cc(S(N)(=O)=O)cc1C | inconclusive: 29.1 µM [activator, single point] |  |
| Oc1[nH]c2ccc(Br)cc2c1N=Nc1ccc(C(F)(F)F)cn1 |  | inactive: 3.04% |
| CCCCOc1ccc(N2C(=O)CC(N(CCc3ccccc3)C(=O)/C=C/C(=O)O)C2=O)cc1 (stereo not drawn) | inconclusive: 25.9 µM [activator, partial curve, poor fit] |  |
| C/C=C/COC(=O)c1[nH]c2c(c1C)C(=O)CC(c1ccco1)C2 (stereo not drawn) | inconclusive: 11.6 µM [activator, partial curve, poor fit] |  |
| CCN(c1ccccc1)S(=O)(=O)c1cc(C(=O)NCC(c2ccc(OC)cc2)N(C)C)ccc1C (stereo not drawn) | inconclusive: 20.6 µM [activator, single point] |  |
| CCC(C)c1ccc(O)c(NC(=S)NC(=O)c2cccnc2)c1 (stereo not drawn) | inconclusive: 18.4 µM [activator, single point] |  |
| COc1ccc(S(=O)(=O)Nc2ccccc2-c2nc3ccccc3[nH]c2=O)cc1 | inconclusive: 29.1 µM [activator, partial curve, poor fit] |  |
| COc1ccc(CC(C)N2CCN(c3cccc(C(F)(F)F)c3)CC2)cc1OC (stereo not drawn) |  | inactive: -0.795% |
| O=S(=O)(NCCOc1ccccc1F)c1cccc(Br)c1 |  | inactive: -14.2% |
| N#Cc1c(N)nc2c3c(sc(=N)c2c1N)NC(=O)CC3c1ccccc1Cl (stereo not drawn) | inconclusive: 18.4 µM [activator, partial curve, poor fit] |  |
| O=C(NNC(=S)Nc1cccc(Cl)c1)c1ccccc1 | inconclusive: 29.1 µM [activator, single point] |  |
| Cc1cccc(-c2nnc(SCC(=O)C(C)(C)C)n2C)c1 | inconclusive: 1.3 µM [activator, partial curve] |  |
| CSC1(SC2=NCCN2)SC2(NCCN2)S1 | inconclusive: 16.4 µM [activator, single point] |  |
| Cc1c(Cl)cccc1NC(=O)CN(C1CCCCC1)S(C)(=O)=O | inconclusive: 0.731 µM [activator, partial curve, poor fit] |  |
| Cc1cc(C)nc(SC2=CS(=O)(=O)c3ccccc32)n1 | active: 20.6 µM |  |
| O=C(N/N=C1\SCC(=O)N1CCc1ccccc1)c1cccs1 |  | inactive: -8.94% |
| Cc1ccc(SCCCn2cncn2)cc1 | inconclusive: 25.9 µM [activator, single point] |  |
| Cc1cc(C)n(-c2nc3ccccc3c(=O)n2OCc2ccc(Cl)cc2)n1 |  | inactive: 10.1% |

Reformatted as tab-separated lines: 2 of the compounds above.
Compound	Potency	re-replication activation
Cc1cccc(-c2nnc(SCC(=O)C(C)(C)C)n2C)c1	inconclusive: 1.3 µM [activator, partial curve]	
Cc1cc(C)nc(SC2=CS(=O)(=O)c3ccccc32)n1	active: 20.6 µM	

Continued.

| Compound | Potency | re-replication activation |
| --- | --- | --- |
| COc1ccc(C(=O)/C(=C\c2ccco2)N2C=CC=CC2=C(C#N)C#N)cc1 | inconclusive: 0.891 µM [activator, full curve, poor fit] |  |
| Cc1cc(C)n2nc(-c3ccccc3)c(-c3ccccc3)c2n1 | inconclusive: 29.1 µM [activator, single point] |  |
| O=C(NCCN1CCOCC1)c1cc([N+](=O)[O-])ccc1Cl | inconclusive: 0.0073 µM [activator, full curve, poor fit] |  |
| COc1cccc(C2C(C(=O)c3cccs3)=C(O)C(=O)N2CCN2CCOCC2)c1OC (stereo not drawn) |  | inactive: -3.03% |
| COc1ccc(NC(=O)N(Cc2cc3cc(C)ccc3[nH]c2=O)CC2CCCO2)cc1 (stereo not drawn) | inconclusive: 23.1 µM [activator, single point] |  |
| COc1ccccc1CNC(=O)[C@@H](NC(=O)C1CCN(C(=O)[C@@H]2CCCN2)CC1)C(C)C | inconclusive: 29.1 µM [activator, single point] |  |
| O=C(CNC(c1ccccc1)c1ccccc1)Nc1ccccc1-c1ccccc1 |  | inactive: 2.81% |
| CC1(c2ccccc2)CC(c2ccccc2)=C(C#N)C(=O)N1 (stereo not drawn) |  | inactive: -3.34% |
| COc1cc(/C=N/Nc2ccc(Cl)c(C(=O)O)c2)ccc1OC(=O)c1ccco1 |  | inactive: 2.12% |
| CN(CC(=O)NCC1CCCO1)S(=O)(=O)c1ccc(Br)cc1 (stereo not drawn) |  | inactive: -11% |
| CN(C)CCCNC(=O)C[C@H]1C[C@H](C(=O)N2CCOCC2)[C@@]2(C)c3[nH]c4cc(-c5ccco5)ccc4c3CCN2C1=O |  | inactive: -7.82% |
| Cc1ccc2nc(-c3ccc(NC(=O)C(C)Sc4nncs4)cc3)sc2c1 (stereo not drawn) | inconclusive: 29.1 µM [activator, single point] |  |
| C(#CCN1CCCC1)CC(c1ccccc1)c1ccccc1 |  | inactive: 4.41% |
| CCN(CC)CC(O)CN(c1ccccc1)S(=O)(=O)c1ccc2ccccc2c1 (stereo not drawn) | inconclusive: 23.1 µM [activator, partial curve, poor fit] |  |
| Cc1cc(SCC(=O)N/N=C/c2ccc(O)c(O)c2)nc2ccccc12 | inconclusive: 16.4 µM [activator, partial curve, poor fit] |  |
| CCOc1ccc(NC(=O)C2CCN(S(C)(=O)=O)CC2)cc1 |  | inconclusive: 118% [activator] |
| Cc1ccc(NC(=O)CCCCCN2C(=O)[C@@H]3Cc4ccccc4CN3C2=O)c(C)c1 | inconclusive: 25.9 µM [activator, single point] |  |
| CN(C)C(=O)c1cc(C(=O)c2ccc(F)cc2Cl)c[nH]1 | inconclusive: 29.1 µM [activator, single point] |  |
| CCCNc1cc(C)oc(=O)c1C(=O)CC |  | inactive: -1.2% |
| CC(C)NC(=O)[C@]1(C)CCC[C@@]2(C)C3CC[C@@]4(C)C[C@]3(CCC21)CC4=O (stereo partly drawn) | inconclusive: 7.31 µM [activator, partial curve, poor fit] |  |
| CCC(C)N1CCC(Oc2ccc(C(=O)NCc3ccccn3)cc2)CC1 (stereo not drawn) | inconclusive: 29.1 µM [activator, single point] |  |
| Cc1ccn2c(Nc3ccccc3C)c(-c3ccncc3)nc2c1 | inconclusive: 20.6 µM [activator, single point] |  |
| Nc1nc(COc2ccc3ccccc3c2)cs1 | inconclusive: 3.26 µM [activator, partial curve, poor fit] |  |

Reprinted at random: 3 records from the list

| Compound | Potency | re-replication activation |
| --- | --- | --- |
| Cc1cc(C)n2nc(-c3ccccc3)c(-c3ccccc3)c2n1 | inconclusive: 29.1 µM [activator, single point] |  |
| CN(CC(=O)NCC1CCCO1)S(=O)(=O)c1ccc(Br)cc1 (stereo not drawn) |  | inactive: -11% |
| CC1(c2ccccc2)CC(c2ccccc2)=C(C#N)C(=O)N1 (stereo not drawn) |  | inactive: -3.34% |

The list goes on:

| Compound | Potency | re-replication activation |
| --- | --- | --- |
| O=C1CCN(C(=O)c2cccs2)c2ccccc21 |  | inactive: -2.05% |
| O=C(Cc1ccc(Cl)cc1)NCCS(=O)(=O)N1CCN(c2ccccc2F)CC1 | inconclusive: 29.1 µM [activator, single point] |  |
| O=C(NNC(=O)c1ccc(Cl)nc1)c1ccc(Br)cc1 |  | inactive: -27.2% |
| CCOC(=O)c1c(NC(=O)c2ccc(S(=O)(=O)N3CCOCC3)cc2)sc2c1CCN(C)C2 | inconclusive: 29.1 µM [activator, single point] |  |
| C#CCOCCOCCOCCNc1nc(N2CCN(C(=O)[C@H](CCC(=O)O)n3cc(CN)nn3)CC2)nc(N2CCN(C(=O)[C@H](CCCCN)n3cc([C@@H](N)CC(N)=O)nn3)CC2)n1 | inconclusive: 1.16 µM [activator, full curve, poor fit] |  |
| O=C(CNc1cccc2ccccc12)N/N=C/C(Br)=C/c1ccccc1 | inconclusive: 29.1 µM [activator, single point] |  |
| CC(=O)Nc1ccc(NC(=O)C2CCCN(c3nnc(-n4cccc4)s3)C2)cc1 (stereo not drawn) | inconclusive: 3.66 µM [activator, full curve, poor fit] |  |
| S=c1sc2c(Cl)ncnc2n1-c1ccccc1 | inconclusive: 0.13 µM [activator, full curve, poor fit] |  |
| CCOC(=O)C1=NN(C(=O)c2ccco2)C2(CC2)C1 |  | inactive: -3.22% |
| CC1(C)CC(NC(=O)c2sc3cc(Cl)ccc3c2Cl)CC(C)(C)N1 | inconclusive: 29.1 µM [activator, single point] |  |
| COc1ccc(/C=C(/CC(=O)Nc2ccccc2)c2nc3ccccc3s2)cc1 |  | inactive: 3.38% |
| COc1ccccc1N1CC(C(=O)Nc2ccccc2N2CCCC2)CC1=O (stereo not drawn) | inconclusive: 20.6 µM [activator, single point] |  |
| CC1CCC/C=C/C(=O)c2c(O)cc(O)cc2CC(=O)O1 (stereo not drawn) | inconclusive: 0.651 µM [activator, partial curve, poor fit] |  |
| Cc1ccc(Cl)cc1N1CCN(C(=O)CCS(=O)(=O)c2ccc3c(c2)NC(=O)CO3)CC1 |  | inactive: -29.2% |
| Cc1cccc(OCC(=O)NNC(=O)CCCCC(=O)NNC(=O)COc2cccc(C)c2)c1 |  | inactive: -0.0481% |
| O=C(/C=C/c1ccc(Cl)cc1Cl)Nc1ccc(CN2CCOCC2)cc1 | inconclusive: 29.1 µM [activator, single point] |  |
| CCN(CC)C(=O)C1CCCN(C/C=C/c2ccccc2)C1 (stereo not drawn) |  | inactive: -17% |
| Clc1ccc(COn2c(-c3ccccc3)nc3ccccc32)cc1 | inconclusive: 16.4 µM [activator, partial curve, poor fit] |  |
| CCOc1ccc(NC(=S)Nc2ccccc2C2(C)CC2)cc1 | inconclusive: 20.6 µM [activator, single point] |  |
| CCc1ccc2[nH]c(=O)c(CN(Cc3ccccc3OC)Cc3nnnn3Cc3ccco3)cc2c1 | inconclusive: 20.6 µM [activator, single point] |  |
| N#C/C(=C\c1cccn1-c1ccccc1)C(=O)NC1CCCCC1 | inconclusive: 2.59 µM [activator, single point] |  |
| CCOCCCNC(=O)Cn1cnc2c(cnn2-c2ccc(C)c(C)c2)c1=O | inconclusive: 16.4 µM [activator, single point] |  |
